Data source: PubChem BioAssay AID652272 (Drosophila RNAi Screening Center, 2013)

Test: 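Genome-wide knock-down search for components of Hedgehog signalling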 (primary screen)
System: Drosophila clone 8 (Cl8) cells
Reagent: long dsRNA against Drosophila genes
Read-out: 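Plate reader light from a firefly reporter under a ptc promoter fragment that responds to Hedgehog, with Renilla light as transfection reference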
Scale: firefly Hh reporter signal: higher = more ptc reporter light; Renilla reference signal: higher = more Renilla control light
Rule for the call: 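Hit when the z-score averaged over two replicates is under -2 or over +3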
Meaning of the calls: active = hit: reporter lowered or raised; inactive = not a hit
The deposit covers about 21,000 reagents; this is an unselected part of those that have a named target and a result. In the full data, 503 (2.4%) were called active. 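Raw plate light values, not normalised; calls rest on replicate z-scores that were not deposited; hits include reporter decreases as well as increases.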 The numbers tell different reagents against one gene apart. No sequences are given here. The record does not give: the amount of reagent, the time to read-out.

Silencing of Noa36 gave: firefly Hh reporter signal, replicate 1 = 1.44e5; firefly Hh reporter signal, replicate 2 = 1.16e5; Renilla reference signal, replicate 1 = 3307; Renilla reference signal, replicate 2 = 2672; inactive.
With knock-down of CG15118, the record shows firefly Hh reporter signal, replicate 1 = 1.26e5; firefly Hh reporter signal, replicate 2 = 1.14e5; Renilla reference signal, replicate 1 = 5244; Renilla reference signal, replicate 2 = 4304; inactive.
Silencing of TwdlK gave: firefly Hh reporter signal, replicate 1 = 80277; firefly Hh reporter signal, replicate 2 = 61707; Renilla reference signal, replicate 1 = 1304; Renilla reference signal, replicate 2 = 1227; inactive.
After knock-down of RhoGEF3 #1, the screen gave firefly Hh reporter signal, replicate 1 = 1.38e5; firefly Hh reporter signal, replicate 2 = 7.24e5; firefly Hh reporter signal, replicate 3 = 1.07e5; Renilla reference signal, replicate 1 = 5901; Renilla reference signal, replicate 2 = 41083; inactive.
Against RhoGEF3 #2, the values are firefly Hh reporter signal, replicate 1 = 1.03e5; firefly Hh reporter signal, replicate 2 = 34412; Renilla reference signal, replicate 1 = 3348; Renilla reference signal, replicate 2 = 2870; inactive.
Knock-down of RhoGEF3 #3 gave: firefly Hh reporter signal, replicate 1 = 71144; firefly Hh reporter signal, replicate 2 = 31091; Renilla reference signal, replicate 1 = 2353; Renilla reference signal, replicate 2 = 2532; inactive.
RhoGEF3 #4 gave firefly Hh reporter signal, replicate 1 = 81922; firefly Hh reporter signal, replicate 2 = 37384; Renilla reference signal, replicate 1 = 2921; Renilla reference signal, replicate 2 = 2549; inactive.
After knock-down of CG14126 (retired record), the screen gave firefly Hh reporter signal, replicate 1 = 45761; firefly Hh reporter signal, replicate 2 = 55671; firefly Hh reporter signal, replicate 3 = 69778; Renilla reference signal, replicate 1 = 4483; Renilla reference signal, replicate 2 = 5004; inactive.
Depletion of CG11630 came out at: firefly Hh reporter signal, replicate 1 = 83257; firefly Hh reporter signal, replicate 2 = 61692; Renilla reference signal, replicate 1 = 2224; Renilla reference signal, replicate 2 = 6166; inactive.

2 entries already listed, arranged by “Renilla reference signal, replicate 2”, descending.
CG15118: firefly Hh reporter signal, replicate 1 = 1.26e5; firefly Hh reporter signal, replicate 2 = 1.14e5; Renilla reference signal, replicate 1 = 5244; Renilla reference signal, replicate 2 = 4304; activity call = inactive
Noa36: firefly Hh reporter signal, replicate 1 = 1.44e5; firefly Hh reporter signal, replicate 2 = 1.16e5; Renilla reference signal, replicate 1 = 3307; Renilla reference signal, replicate 2 = 2672; activity call = inactive

The list goes on.
After knock-down of su(Hw), the record shows firefly Hh reporter signal, replicate 1 = 1.14e5; firefly Hh reporter signal, replicate 2 = 60416; Renilla reference signal, replicate 1 = 4736; Renilla reference signal, replicate 2 = 2662; inactive.
KLHL18 gave firefly Hh reporter signal, replicate 1 = 99589; firefly Hh reporter signal, replicate 2 = 75718; Renilla reference signal, replicate 1 = 3888; Renilla reference signal, replicate 2 = 3056; inactive.
For pasha, the entry reads firefly Hh reporter signal, replicate 1 = 1.11e5; firefly Hh reporter signal, replicate 2 = 90304; Renilla reference signal, replicate 1 = 2978; Renilla reference signal, replicate 2 = 3191; inactive.
dnk gave firefly Hh reporter signal, replicate 1 = 4.59e5; firefly Hh reporter signal, replicate 2 = 1.03e5; Renilla reference signal, replicate 1 = 25578; Renilla reference signal, replicate 2 = 3184; inactive.
After knock-down of NiPp1 the results were firefly Hh reporter signal, replicate 1 = 1.26e5; firefly Hh reporter signal, replicate 2 = 72372; Renilla reference signal, replicate 1 = 5677; Renilla reference signal, replicate 2 = 3019; inactive.
